The assay concerns the target T1, MBP-AtMago (Arabidopsis thaliana) (UniProt O23676).
T1 sequence: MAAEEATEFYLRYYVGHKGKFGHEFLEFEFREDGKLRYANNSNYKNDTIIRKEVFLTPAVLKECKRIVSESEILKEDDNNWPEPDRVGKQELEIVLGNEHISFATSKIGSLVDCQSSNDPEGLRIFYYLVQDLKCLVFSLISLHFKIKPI
Description: pull-down; MBP, MBP-AtMago or MBP-AtMagoΔC kept on amylose beads; purified His-Y14 or His-eIF4AIII diluted in Column Buffer (200 mM NaCl, 1 mM EDTA, 20 mM Tris-HCl, pH 7.4), 300 μL, on ice 1 hour; three washes; Western blot with anti-His or anti-MBP; both purified. (In western blotting, separated proteins are transferred to a membrane and probed.)

No constants are given. Whether binding was seen depends on the method and setting. Binding calls can cover weak binding; strength is not graded here. Tags and fused reporters may be left off the sequences shown.

Regarding His-AtY14 (Arabidopsis thaliana), the binding entry is on record as “binds”.

Source of the values: publication PMC4750992, “A New Mutation, hap1-2, Reveals a C Terminal Domain Function in AtMago Protein and Its Biological Effects in Male Gametophyte Development in Arabidopsis thaliana” (PLoS ONE, 2016).
